These are yes or no findings as the source states them, for the method shown. Some binding calls cover weakened binding; strength is not graded here.
T1: LGR7 (leucine-rich repeat-containing GPCR 7) (human) (UniProt Q9HBX9)
T1 sequence (looked up): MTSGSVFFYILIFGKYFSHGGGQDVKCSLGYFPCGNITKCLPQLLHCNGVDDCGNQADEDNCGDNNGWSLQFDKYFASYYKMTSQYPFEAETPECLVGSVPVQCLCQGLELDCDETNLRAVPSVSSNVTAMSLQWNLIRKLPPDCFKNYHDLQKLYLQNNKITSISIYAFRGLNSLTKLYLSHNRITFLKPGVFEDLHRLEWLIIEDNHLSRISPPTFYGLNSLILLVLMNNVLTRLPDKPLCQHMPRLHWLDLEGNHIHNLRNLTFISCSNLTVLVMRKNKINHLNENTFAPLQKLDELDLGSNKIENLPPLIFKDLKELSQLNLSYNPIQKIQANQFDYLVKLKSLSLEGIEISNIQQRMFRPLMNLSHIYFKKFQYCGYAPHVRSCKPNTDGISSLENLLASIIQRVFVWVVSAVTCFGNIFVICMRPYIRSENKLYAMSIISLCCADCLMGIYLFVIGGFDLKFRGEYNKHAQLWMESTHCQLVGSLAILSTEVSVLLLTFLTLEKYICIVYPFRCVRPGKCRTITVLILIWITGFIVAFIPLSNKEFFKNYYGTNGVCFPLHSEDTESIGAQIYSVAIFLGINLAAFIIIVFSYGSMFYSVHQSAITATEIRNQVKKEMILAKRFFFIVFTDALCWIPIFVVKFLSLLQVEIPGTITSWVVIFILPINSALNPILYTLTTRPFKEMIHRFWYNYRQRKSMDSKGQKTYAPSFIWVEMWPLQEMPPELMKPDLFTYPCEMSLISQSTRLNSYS

B1: RLN2^A19-20 (ligand, not shown: small tags and cut ends)
chain 1: SWMEEVIKLCGRELVRAQIAICGMSTWSHHHHHH
chain 2: QLYSALANKCCHVGCTKRAAARFC
notes: It is read here as both residues changed to alanine
B2: RLN2^A22-23 (ligand, not shown: small tags and cut ends)
chain 1: B1 chain 1
chain 2: QLYSALANKCCHVGCTKRSLAAAC
notes: as for B1

Target: T1, LGR7 (leucine-rich repeat-containing GPCR 7) (human)
Test: competition with 125I-RLN2 tracer on LGR7-expressing HEK293T cells

Binder	binding
B1	binds
B2	binds

Reference: patent US20130244938A1 (Stanford University, published 2013)
